Source: patent US20260242738A1, “ALK5 INHIBITORS FOR EFFICIENT DERIVATION OF MESENCHYMAL STEM CELLS FROM EMBRYONIC STEM CELLS” (SCRIPPS HEALTH, priority 2022, published 2026)
For at least one compound, name, drawing or mass did not settle the structure.

Test system: HADC100 ESC
Assay: Flow cytometry of MSC surface markers after ESC to MSC differentiation with ALK-5 inhibitors
Assay type: cell-based, human
Details: HADC 100 ES-MSC
Method: An overview of the differentiation process is provided in FIG. 1, panel K. To create cell clusters or embryoid bodies of uniform size, ESCs were removed from CellStart culture using Accutase® for 2-5 minutes until single cells were observed. […] After 24 hours, the cell clusters were suspended at 2.5-3×10^5 cells per ml in ultra-low adherent 6 well plates (Corning) in StemPro-34 serum free medium (ThermoFisher) supplemented with 2 mM L-glutamine (ThermoFisher Scientific), 50 μg/ml Ascorbic acid (Stemcell Technologies, Vancouver, Canada) and 1.8 μl/ml ITS-G (100× Insulin-Transferrin-Selenium; ThermoFisher); termed as “complete SP-34 medium”.
The medium was changed every 2 days by removing cell clusters into 15 ml sterile tubes and permitted to gravity settle for 10 minutes at room temperature. Most of the media was removed using a pipette to leave approximately 300-500 μl of medium. […]
After treatment with the appropriate ALK5 inhibitor, the cell clusters were removed by gravity settling and suspended in complete SP-34 medium supplemented with bFGF 20 ng/ml (without any ALK-5 inhibitor or DMSO) and transferred onto fibronectin (FN) coated (10 μg/ml; Fibronectin from human plasma, Sigma-Aldrich, St. Louis, MO) T75 cm^2 flasks (passage zero (P0)). The emerging cells and remaining cell clusters were exposed to Accutase® for 5-10 minutes, gently triturated and counted. […]

Compound: Cc1cccc(-c2[nH]c(C(C)(C)C)nc2-c2ccc3nccnc3c2)n1 [SB525334]
- CD73 positive cells: 99.2=1.0%
